Laboratory results published in the supplement of paper PMC10849652.
Some of the results follow.

Amino acid sequences for entries named in this document (tags omitted). A change or cut given only in a name is not applied to a line headed by its entry.
UniProt P20340: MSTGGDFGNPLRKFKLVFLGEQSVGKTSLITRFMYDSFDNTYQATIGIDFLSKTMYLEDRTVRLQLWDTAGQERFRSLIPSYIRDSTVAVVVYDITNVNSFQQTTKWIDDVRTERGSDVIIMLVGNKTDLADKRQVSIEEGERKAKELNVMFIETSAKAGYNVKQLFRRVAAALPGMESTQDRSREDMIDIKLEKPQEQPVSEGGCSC
UniProt Q06609, whole entry, looked up: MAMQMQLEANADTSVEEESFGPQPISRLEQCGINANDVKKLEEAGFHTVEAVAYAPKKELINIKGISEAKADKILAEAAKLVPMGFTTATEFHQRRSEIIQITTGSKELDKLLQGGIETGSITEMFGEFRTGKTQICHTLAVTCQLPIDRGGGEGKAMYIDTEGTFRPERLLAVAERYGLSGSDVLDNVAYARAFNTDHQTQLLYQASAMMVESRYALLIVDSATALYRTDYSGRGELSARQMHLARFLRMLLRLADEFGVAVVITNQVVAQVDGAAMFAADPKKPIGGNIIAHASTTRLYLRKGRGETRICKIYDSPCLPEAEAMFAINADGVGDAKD
UniProt Q5T160: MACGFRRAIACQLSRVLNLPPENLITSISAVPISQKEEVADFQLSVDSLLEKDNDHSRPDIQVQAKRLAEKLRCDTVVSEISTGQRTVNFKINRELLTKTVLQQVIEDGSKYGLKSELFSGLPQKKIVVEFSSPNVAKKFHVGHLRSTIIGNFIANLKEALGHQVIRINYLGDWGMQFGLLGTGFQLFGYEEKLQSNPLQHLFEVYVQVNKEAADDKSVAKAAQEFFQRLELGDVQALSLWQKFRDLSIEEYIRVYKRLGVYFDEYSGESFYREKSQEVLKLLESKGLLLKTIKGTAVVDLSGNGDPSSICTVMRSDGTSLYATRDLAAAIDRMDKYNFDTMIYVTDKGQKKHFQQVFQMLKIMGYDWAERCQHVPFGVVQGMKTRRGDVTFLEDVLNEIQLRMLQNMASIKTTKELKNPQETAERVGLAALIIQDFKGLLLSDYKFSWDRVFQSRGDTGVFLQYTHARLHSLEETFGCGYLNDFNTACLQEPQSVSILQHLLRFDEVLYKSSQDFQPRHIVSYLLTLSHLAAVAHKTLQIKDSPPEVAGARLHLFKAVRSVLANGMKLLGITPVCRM
UniProt P11233: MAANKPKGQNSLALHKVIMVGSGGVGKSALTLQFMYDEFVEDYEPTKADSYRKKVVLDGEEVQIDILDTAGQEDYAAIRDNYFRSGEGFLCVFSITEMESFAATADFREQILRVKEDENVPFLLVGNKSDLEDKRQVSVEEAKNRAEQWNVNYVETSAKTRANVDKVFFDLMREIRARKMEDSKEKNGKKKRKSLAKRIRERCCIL
UniProt Q9UKM9: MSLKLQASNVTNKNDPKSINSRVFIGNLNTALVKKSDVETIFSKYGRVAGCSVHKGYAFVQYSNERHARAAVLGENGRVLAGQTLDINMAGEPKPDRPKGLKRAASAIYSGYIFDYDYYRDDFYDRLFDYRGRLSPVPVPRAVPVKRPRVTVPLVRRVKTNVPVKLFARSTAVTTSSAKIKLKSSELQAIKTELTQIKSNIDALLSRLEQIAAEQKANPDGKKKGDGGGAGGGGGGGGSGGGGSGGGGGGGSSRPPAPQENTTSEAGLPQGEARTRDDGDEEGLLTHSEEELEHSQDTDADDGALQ
UniProt P52306: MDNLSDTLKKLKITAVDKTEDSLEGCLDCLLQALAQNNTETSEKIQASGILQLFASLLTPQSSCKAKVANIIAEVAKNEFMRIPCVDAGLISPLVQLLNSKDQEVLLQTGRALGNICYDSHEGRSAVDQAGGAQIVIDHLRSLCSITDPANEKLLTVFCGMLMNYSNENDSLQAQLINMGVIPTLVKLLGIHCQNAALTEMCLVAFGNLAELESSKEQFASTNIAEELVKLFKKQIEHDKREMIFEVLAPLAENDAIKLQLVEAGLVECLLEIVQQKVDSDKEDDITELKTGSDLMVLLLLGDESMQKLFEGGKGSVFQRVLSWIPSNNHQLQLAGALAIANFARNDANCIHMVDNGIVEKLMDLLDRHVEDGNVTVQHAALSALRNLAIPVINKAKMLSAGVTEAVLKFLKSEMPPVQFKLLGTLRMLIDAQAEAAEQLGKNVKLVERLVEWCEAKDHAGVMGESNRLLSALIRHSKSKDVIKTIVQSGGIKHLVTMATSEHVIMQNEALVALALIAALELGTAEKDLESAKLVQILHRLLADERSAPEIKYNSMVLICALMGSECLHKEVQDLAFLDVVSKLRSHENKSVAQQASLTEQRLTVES
UniProt Q16576, whole entry, looked up: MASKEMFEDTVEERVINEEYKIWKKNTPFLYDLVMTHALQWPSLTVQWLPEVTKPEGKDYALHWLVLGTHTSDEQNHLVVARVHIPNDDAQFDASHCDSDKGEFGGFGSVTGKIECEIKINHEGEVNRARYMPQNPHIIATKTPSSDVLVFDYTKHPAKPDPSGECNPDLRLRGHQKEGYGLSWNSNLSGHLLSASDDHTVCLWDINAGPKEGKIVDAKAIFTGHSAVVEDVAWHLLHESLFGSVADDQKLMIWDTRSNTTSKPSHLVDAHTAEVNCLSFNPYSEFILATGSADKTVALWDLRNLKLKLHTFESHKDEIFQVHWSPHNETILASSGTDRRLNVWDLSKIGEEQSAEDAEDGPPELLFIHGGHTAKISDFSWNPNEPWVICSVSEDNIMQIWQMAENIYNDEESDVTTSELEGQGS
UniProt P49756, whole entry, looked up: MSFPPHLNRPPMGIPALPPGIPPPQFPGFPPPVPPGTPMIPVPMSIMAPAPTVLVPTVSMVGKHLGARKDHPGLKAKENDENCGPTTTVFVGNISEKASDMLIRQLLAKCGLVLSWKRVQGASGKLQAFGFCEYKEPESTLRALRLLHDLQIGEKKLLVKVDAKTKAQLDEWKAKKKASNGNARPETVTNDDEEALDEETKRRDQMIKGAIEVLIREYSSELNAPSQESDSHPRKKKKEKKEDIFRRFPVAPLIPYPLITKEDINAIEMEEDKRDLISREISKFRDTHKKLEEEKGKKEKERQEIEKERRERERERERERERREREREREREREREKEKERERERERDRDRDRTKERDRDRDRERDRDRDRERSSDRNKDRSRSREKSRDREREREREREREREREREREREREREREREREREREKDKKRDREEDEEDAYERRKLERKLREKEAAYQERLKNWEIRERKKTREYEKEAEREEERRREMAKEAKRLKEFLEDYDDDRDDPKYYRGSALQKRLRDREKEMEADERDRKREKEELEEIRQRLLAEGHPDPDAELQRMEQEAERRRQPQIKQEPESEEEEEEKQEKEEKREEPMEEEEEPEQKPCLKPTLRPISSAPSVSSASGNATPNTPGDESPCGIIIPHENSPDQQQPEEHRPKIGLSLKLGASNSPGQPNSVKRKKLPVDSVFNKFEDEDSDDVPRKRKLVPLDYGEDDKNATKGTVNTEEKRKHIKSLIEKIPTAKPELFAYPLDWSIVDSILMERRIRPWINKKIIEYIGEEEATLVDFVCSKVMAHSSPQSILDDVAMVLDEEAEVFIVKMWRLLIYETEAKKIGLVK
UniProt Q9UI14, whole entry, looked up: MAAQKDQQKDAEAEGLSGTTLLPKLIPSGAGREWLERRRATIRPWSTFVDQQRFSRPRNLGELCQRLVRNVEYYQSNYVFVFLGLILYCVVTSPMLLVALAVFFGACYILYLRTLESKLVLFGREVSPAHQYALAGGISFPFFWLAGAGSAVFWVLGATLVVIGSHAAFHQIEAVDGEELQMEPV
UniProt Q8TDY2, whole entry, looked up: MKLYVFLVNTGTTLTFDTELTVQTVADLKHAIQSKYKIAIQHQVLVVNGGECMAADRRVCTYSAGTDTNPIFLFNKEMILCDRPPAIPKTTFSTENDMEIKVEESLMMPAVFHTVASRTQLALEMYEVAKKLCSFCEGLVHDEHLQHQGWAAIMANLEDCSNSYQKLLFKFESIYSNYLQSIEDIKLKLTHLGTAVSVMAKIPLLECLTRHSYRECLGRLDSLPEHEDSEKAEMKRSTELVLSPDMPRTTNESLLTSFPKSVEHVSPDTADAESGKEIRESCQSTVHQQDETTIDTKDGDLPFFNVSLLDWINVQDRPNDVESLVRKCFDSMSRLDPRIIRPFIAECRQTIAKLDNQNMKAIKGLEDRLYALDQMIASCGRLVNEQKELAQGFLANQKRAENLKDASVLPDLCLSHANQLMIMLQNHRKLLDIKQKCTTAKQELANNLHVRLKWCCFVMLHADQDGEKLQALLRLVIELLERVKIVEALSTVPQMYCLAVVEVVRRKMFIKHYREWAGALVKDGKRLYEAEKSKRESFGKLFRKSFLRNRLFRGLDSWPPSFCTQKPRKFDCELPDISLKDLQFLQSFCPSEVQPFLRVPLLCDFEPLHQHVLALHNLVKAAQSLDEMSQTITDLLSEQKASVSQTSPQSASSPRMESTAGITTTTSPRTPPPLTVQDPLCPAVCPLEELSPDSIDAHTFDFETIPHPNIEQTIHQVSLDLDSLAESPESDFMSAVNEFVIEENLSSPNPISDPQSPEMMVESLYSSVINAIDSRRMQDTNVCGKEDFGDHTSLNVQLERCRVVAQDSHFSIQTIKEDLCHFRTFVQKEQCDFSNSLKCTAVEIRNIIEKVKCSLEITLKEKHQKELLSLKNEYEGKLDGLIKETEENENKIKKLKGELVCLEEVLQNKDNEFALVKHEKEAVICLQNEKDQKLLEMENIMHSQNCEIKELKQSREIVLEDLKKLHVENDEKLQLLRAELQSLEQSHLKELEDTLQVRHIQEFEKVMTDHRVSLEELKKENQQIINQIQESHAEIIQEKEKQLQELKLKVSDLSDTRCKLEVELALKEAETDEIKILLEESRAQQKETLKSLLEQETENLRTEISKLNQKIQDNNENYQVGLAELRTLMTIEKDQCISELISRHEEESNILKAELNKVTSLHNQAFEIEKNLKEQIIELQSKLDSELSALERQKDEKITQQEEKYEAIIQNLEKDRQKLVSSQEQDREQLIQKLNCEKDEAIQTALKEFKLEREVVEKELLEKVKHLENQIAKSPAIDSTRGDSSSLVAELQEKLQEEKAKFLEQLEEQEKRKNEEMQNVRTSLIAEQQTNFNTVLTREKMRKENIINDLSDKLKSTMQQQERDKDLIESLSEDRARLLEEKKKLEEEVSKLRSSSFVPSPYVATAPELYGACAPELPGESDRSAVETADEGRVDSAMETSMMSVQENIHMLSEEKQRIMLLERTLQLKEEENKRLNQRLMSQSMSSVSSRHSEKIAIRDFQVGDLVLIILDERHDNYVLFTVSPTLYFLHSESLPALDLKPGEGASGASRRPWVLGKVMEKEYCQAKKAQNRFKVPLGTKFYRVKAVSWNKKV
UniProt Q96S21: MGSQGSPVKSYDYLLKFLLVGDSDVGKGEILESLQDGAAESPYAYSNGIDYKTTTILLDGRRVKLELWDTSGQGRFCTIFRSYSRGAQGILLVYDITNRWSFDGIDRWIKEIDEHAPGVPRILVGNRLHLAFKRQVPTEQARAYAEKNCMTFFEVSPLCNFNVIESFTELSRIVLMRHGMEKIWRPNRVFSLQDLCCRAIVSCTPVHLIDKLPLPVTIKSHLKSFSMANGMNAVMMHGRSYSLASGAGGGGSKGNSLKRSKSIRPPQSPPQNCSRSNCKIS
UniProt Q5T8P6: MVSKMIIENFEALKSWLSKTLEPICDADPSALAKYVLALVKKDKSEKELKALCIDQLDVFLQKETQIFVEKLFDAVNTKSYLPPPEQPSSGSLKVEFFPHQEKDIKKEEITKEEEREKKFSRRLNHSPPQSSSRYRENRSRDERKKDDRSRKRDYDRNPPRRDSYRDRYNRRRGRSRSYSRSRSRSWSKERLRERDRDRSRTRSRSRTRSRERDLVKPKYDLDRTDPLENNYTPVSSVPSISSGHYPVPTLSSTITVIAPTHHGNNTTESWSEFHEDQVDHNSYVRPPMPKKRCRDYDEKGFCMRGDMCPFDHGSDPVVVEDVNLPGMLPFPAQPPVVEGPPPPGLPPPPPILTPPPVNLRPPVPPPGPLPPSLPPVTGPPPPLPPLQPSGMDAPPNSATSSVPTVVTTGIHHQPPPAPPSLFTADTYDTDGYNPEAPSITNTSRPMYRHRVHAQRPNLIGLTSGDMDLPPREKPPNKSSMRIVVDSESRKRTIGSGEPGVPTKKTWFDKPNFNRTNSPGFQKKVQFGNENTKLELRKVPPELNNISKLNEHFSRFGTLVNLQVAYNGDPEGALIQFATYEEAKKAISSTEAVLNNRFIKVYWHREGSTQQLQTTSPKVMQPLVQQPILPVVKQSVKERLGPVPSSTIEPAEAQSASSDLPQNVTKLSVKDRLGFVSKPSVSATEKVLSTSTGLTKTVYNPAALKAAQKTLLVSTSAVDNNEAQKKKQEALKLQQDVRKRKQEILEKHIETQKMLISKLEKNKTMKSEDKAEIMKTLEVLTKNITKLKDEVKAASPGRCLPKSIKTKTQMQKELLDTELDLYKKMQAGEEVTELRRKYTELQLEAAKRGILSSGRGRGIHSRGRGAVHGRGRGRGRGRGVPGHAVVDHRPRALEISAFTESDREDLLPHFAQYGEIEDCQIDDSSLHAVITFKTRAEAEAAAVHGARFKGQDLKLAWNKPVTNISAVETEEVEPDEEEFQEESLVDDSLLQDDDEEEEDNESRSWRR

Assays:
Experiment in all cases: log2 fold change, soluble protein after heating vs DMSO (PISA); higher = thermal stabilisation; K562 cells, 10 uM, 30 min; active = over 0.2 and 3.5 SD of the protein, either way, in both replicates (recomputed)
[1] = compound: CS(=O)(=O)c1ccc(-c2cnc(N)c(C(=O)Nc3ccccc3)n2)cc1
How it was run: (§1)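 Soluble protein was defined as the supernatant after 21,000xg for 90 min. It came from K562 cells at 2×10^6 cells/mL given 10 μM compound for 30 min, heated in aliquots for 3 min across 48°C-58°C, pooled, and extracted in PBS with 0.5% NP-40 at 4°C, and was quantified by TMTpro 16plex LC-MS/MS with equalised channel sums. Thermal stability against control samples, from duplicates, is reported as log2 fold change.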

[2] = compound: C[C@@H](Oc1cc(-c2cnn(C3CCNCC3)c2)cnc1N)c1c(Cl)ccc(F)c1Cl [crizotinib]
How it was run: as §1

[3] = compound: C[C@@H]1COCCN1C2=NC(=NC(=C2)C3(CC3)S(=O)(=O)C)C4=C5C=CNC5=CC=C4
How it was run: as §1

[4] = compound: C[C@H](C1=CC=C(C=C1)C(=O)NC2=C3C=CNC3=NC=C2)N
How it was run: as §1

[5] = compound: Cc1cc(Nc2cc(CN3CCOCC3)c3nc(C)c(Cc4ccc(Cl)cc4F)n3n2)n[nH]1 [gandotinib]
How it was run: as §1

[6] = compound: Cc1cc(SCc2sc(-c3ccc(C(F)(F)F)cc3)nc2C)ccc1OCC(=O)O
How it was run: as §1

[7] = compound: Cc1ccc(-n2nc(C(C)(C)C)cc2NC(=O)Nc2ccc(OCCN3CCOCC3)c3ccccc23)cc1 [doramapimod]
How it was run: as §1

[8] = compound: Cc1ccc(C(=O)N(CCCN)[C@@H](c2nc3cc(Cl)ccc3c(=O)n2Cc2ccccc2)C(C)C)cc1 [ispinesib]
How it was run: as §1

[9] = compound: C[C@H](Nc1ncnc2nc[nH]c12)c1cc2cccc(Cl)c2c(=O)n1-c1ccccc1 [duvelisib]
How it was run: as §1

[10] = compound: Cc1cc(Nc2cc(N3CCN(C)CC3)nc(Sc3ccc(NC(=O)C4CC4)cc3)n2)n[nH]1 [tozasertib]
How it was run: as §1

Target	log2 fold change [1]	log2 fold change [2]	log2 fold change [3]	log2 fold change [4]	log2 fold change [5]	log2 fold change [6]	log2 fold change [7]	log2 fold change [8]	log2 fold change [9]	log2 fold change [10]
RBM33 (UniProt Q96EV2)	inactive: -0.01	inactive: 0.058	inactive: -0.063	inactive: -0.077	inactive: 0.03	inactive: 0.043	inactive: -0.022	inactive: -0.085	–	–
RAB6A isoform 2 (UniProt P20340)	inactive: 0.024	inactive: 0.127	inactive: -0.057	inactive: -0.004	inactive: -0.06	inactive: -0.04	inactive: -0.024	inactive: 0.086	inactive: 0.027	inactive: -0.024
RACK1 (UniProt P63244)	inactive: -0.038	inactive: 0.042	inactive: -0.07	inactive: -0.126	inactive: -0.032	inactive: 0.012	inactive: -0.053	inactive: 0.068	inactive: -0.003	inactive: 0.004
RALBP1 (UniProt Q15311)	inactive: 0.038	inactive: 0.017	inactive: -0.148	inactive: 0.319	inactive: 0.148	–	inactive: 0.151	–	–	inactive: -0.195
RAB20 (UniProt Q9NX57)	inactive: 0.057	inactive: 0.052	inactive: 0.134	inactive: -0.043	inactive: 0.018	inactive: 0.022	inactive: 0.047	inactive: 0.08	inactive: 0.062	inactive: -0.057
RAVER1 (UniProt E9PAU2)	inactive: 0.061	inactive: 0.049	inactive: 0.188	inactive: -0.381	inactive: -0.091	inactive: 0.132	inactive: 0.002	inactive: -0.171	–	–
RAB8A isoform 2 (UniProt P61006)	inactive: -0.001	inactive: 0.04	inactive: -0.007	inactive: -0.068	inactive: -0.065	inactive: -0.011	inactive: -0.021	inactive: 0.028	inactive: 0.057	inactive: -0.004
RAB33B (UniProt Q9H082)	inactive: 0.007	inactive: 0.106	inactive: 0.064	inactive: -0.037	inactive: -0.095	inactive: -0.038	inactive: -0.021	inactive: -0.065	–	–
RAD51 (UniProt Q06609)	inactive: 0.005	inactive: -0.061	inactive: -0.079	inactive: -0.019	inactive: 0.01	inactive: -0.005	inactive: -0.025	inactive: -0.009	–	–
RBM22 (UniProt Q9NW64)	inactive: -0.045	inactive: 0.061	inactive: -0.053	inactive: 0.121	inactive: -0.04	inactive: 0	inactive: -0.025	inactive: -0.053	–	–
RBBP6 (UniProt Q7Z6E9)	inactive: -0.117	inactive: -0.158	inactive: -0.036	inactive: 0.072	inactive: -0.066	–	inactive: 0.012	inactive: 0.168	–	–
RARS2 (UniProt Q5T160)	inactive: -0.026	inactive: -0.016	inactive: 0.091	inactive: -0.021	inactive: -0.075	inactive: 0.019	inactive: -0.017	inactive: -0.033	–	–
RAC3 (UniProt P60763)	inactive: 0.074	inactive: 0.097	inactive: 0.073	inactive: -0.027	inactive: 0	inactive: 0.005	active: 0.262	inactive: -0.013	–	–
RALA (UniProt P11233)	inactive: 0.026	inactive: 0.112	inactive: 0.088	inactive: -0.097	inactive: -0.001	inactive: -0.009	inactive: -0.009	inactive: 0.03	–	–
RALY (UniProt Q9UKM9)	inactive: -0.149	inactive: -0.068	inactive: -0.138	inactive: 0.316	inactive: 0.098	inactive: 0.043	inactive: 0.01	inactive: -0.082	–	–
RAP1GDS1 isoform 5 (UniProt P52306)	inactive: 0.061	inactive: -0.062	inactive: 0.08	inactive: 0.009	inactive: -0.066	inactive: 0.036	inactive: -0.014	inactive: -0.096	–	–
RAB8B (UniProt Q92930)	inactive: -0.212	inactive: 0	inactive: -0.046	inactive: -0.345	inactive: -0.086	inactive: 0.005	inactive: 0.034	inactive: 0.01	–	–
RBBP7 (UniProt Q16576)	inactive: 0	inactive: 0.039	inactive: -0.016	–	–	inactive: -0.121	inactive: 0.093	inactive: 0.04	inactive: 0.06	–
RANBP2 (UniProt P49792)	inactive: -0.016	inactive: 0.009	inactive: -0.011	inactive: 0.103	inactive: -0.066	inactive: -0.003	inactive: 0.043	inactive: -0.031	–	–
RBM25 (UniProt P49756)	inactive: -0.071	inactive: -0.052	inactive: 0.09	inactive: -0.01	inactive: -0.166	inactive: -0.074	inactive: 0.057	inactive: -0.049	–	–
RAPGEF5, A0A590UJR0	inactive: 0.01	inactive: 0.161	–	inactive: 0.345	inactive: -0.344	inactive: -0.037	inactive: -0.091	inactive: 0.058	inactive: 0.222	inactive: -0.154
RARS (UniProt P54136)	inactive: -0.001	inactive: -0.266	inactive: -0.099	inactive: 0.373	inactive: 0.018	inactive: 0.132	inactive: 0.184	active: -0.398	–	–
RABAC1 (UniProt Q9UI14)	inactive: -0.028	inactive: -0.013	inactive: -0.009	–	inactive: -0.001	inactive: 0	inactive: 0.023	inactive: -0.034	inactive: 0.057	inactive: 0.018
RB1CC1 (UniProt Q8TDY2)	inactive: 0.062	inactive: 0.041	inactive: -0.006	inactive: 0.033	inactive: 0.132	inactive: 0.011	inactive: 0.037	inactive: -0.02	–	–
RAB40C (UniProt Q96S21)	inactive: 0.018	inactive: 0.001	inactive: 0.063	–	inactive: -0.236	inactive: -0.215	inactive: 0.022	inactive: -0.055	inactive: -0.213	inactive: 0.051
RAB27B (UniProt O00194)	inactive: -0.002	inactive: 0.072	–	inactive: -0.204	inactive: -0.071	inactive: 0.051	inactive: 0.032	inactive: -0.002	inactive: -0.026	inactive: 0.027
RAB3IL1 (UniProt E9PK89)	inactive: 0.036	inactive: -0.003	inactive: 0.163	inactive: -0.211	inactive: 0.154	–	inactive: -0.07	inactive: 0.07	–	–
RBM26 isoform 2 (UniProt Q5T8P6)	inactive: -0.012	inactive: 0.03	inactive: 0.374	inactive: -0.154	inactive: -0.056	inactive: 0.136	inactive: -0.036	inactive: -0.089	–	–
RAB5IF isoform 5 (UniProt Q9BUV8)	inactive: -0.036	inactive: -0.094	inactive: 0.076	inactive: -0.007	inactive: 0.04	inactive: -0.002	inactive: 0.025	inactive: 0.157	–	–

Some entries already given with just log2 fold change [5] and log2 fold change [10]:

| Target | log2 fold change [5] | log2 fold change [10] |
| --- | --- | --- |
| RACK1 (UniProt P63244) | inactive: -0.032 | inactive: 0.004 |
| RALBP1 (UniProt Q15311) | inactive: 0.148 | inactive: -0.195 |
